Reference: paper PMC7164261
Results are given in words; binding and its absence hold for the method and conditions named. Binding seen in cells or lysates may run through a third protein. For some assays here: A result given as binding can be weak or reduced; the word gives no strength. Tags and fused reporters may be left off the sequences shown.

Amino acid sequences for entries named in this document (tags omitted). A change or cut given only in a name is not applied to a line headed by its entry.
UniProt Q9D6K5: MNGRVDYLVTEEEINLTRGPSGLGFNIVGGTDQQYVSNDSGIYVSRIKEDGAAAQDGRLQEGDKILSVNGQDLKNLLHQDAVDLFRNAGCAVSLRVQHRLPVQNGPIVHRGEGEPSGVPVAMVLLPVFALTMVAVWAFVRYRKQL

Legend:
[1] = biological target: T1, GST-TMIGD1 (cytoplasmic tail of human TMIGD1, AA 242-262) (human) (UniProt Q6UXZ0); assay: pull-down; 3 μg GST fusion protein on glutathione-Sepharose 4B, incubated with lysates of transfected HEK293T cells for 2 h at 4 °C; lysis buffer 50 mM TrisHCl pH 7.4, 1% NP-40, 150 mM NaCl; blot with anti-SYNJ2BP antibodies; only the target purified
T1 sequence: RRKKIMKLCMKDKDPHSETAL

[2] = biological target: T2, GST-TMIGD1/Δ5 (cytoplasmic tail of human TMIGD1 lacking the PDZ domain binding motif, AA 242-257) (human) (UniProt Q6UXZ0); assay: as above
T2 sequence: RRKKIMKLCMKDKDPH

binding [1]: binds
binding [2]: no binding
Substance: SYNJ2BP from SYNJ2BP-transfected HEK293T cells (prey of the GST pull-down) (from UniProt Q9D6K5)
